Measurements published in the supplement of paper PMC9015667.
Where a name gives a salt, the structure may show the parent alone. The list shows a part of the results. Many values rest on one well or one pass, so single values are uncertain.

Columns and labels:
Assay in all cases: reduction in cell viability relative to untreated/vehicle; higher = more growth inhibition
Conditions in all cases: 200 nM; 72 h
M229P = tested on: M229P (parental melanoma line)
M229R = tested on: M229R (matched melanoma line resistant to BRAF inhibitors)
M238P = tested on: M238P (parental melanoma line)
M238R = tested on: M238R (matched melanoma line resistant to BRAF inhibitors)
M249P = tested on: M249P (parental melanoma line)
M249R = tested on: M249R (matched melanoma line resistant to BRAF inhibitors)
UACC62P = tested on: UACC62P (parental melanoma line)
UACC62R = tested on: UACC62R (matched melanoma line resistant to BRAF inhibitors)

Measured: reduction in cell viability

CCN(CC)CCNC(=O)c1ccc2nc(-c3ccccc3)c(-c3ccc(CN4CCC(n5c(=O)[nH]c6ccccc65)CC4)cc3)nc2c1 [Merck-22-6]
< 0%: all assays above

O=C1CCCC2=C1C(c1[nH]ncc1Cl)N=C(Nc1nc3ccccc3o1)N2 (stereo unspecified)
12.2%: UACC62P
< 0%: all other assays above

CN1CCc2c(c3ccccc3n2Cc2ccc(C(=O)NO)cc2)C1 [Tubastatin A]
< 0%: all assays above

Cc1cc(O)c2c(c1)C(=O)c1cccc(O)c1C2=O [Chrysophanol]
3.72%: UACC62P
< 0%: all other assays above

COc1ccc2c(c1)CC[C@H](CN(C)CC(=O)O)[C@@H]2c1ccccc1
9.67%: M249R
< 0%: all other assays above

CC12CC3CC(C)(C1)CC(N)(C3)C2 [Memantine]
< 0%: all assays above

COc1ccnc(C[S+]([O-])c2nc3cc(OC(F)F)ccc3[nH]2)c1OC (stereo unspecified) [Pantoprazole]
< 0%: all assays above

C[C@H](CCC(=O)O)[C@H]1CC[C@H]2[C@@H]3C[C@H](O)[C@@H]4C[C@H](O)CC[C@]4(C)[C@H]3CC[C@]12C [Hyodeoxycholic acid (HDCA)]
6.02%: M249R
< 0%: all other assays above

CC1=C(CC(=O)O)c2cc(F)ccc2/C1=C\c1ccc([S+](C)[O-])cc1 (stereo unspecified) [Sulindac]
< 0%: all assays above

CCN[C@H]1C[C@H](C)S(=O)(=O)c2sc(S(N)(=O)=O)cc21 [Dorzolamide hydrochloride]
< 0%: all assays above

COc1ccc2cc3[n+](cc2c1OC)CCc1cc2c(cc1-3)OCO2 [Berberine]
< 0%: all assays above

3 entries already listed, ordered by number of heavy atoms, descending.
C[C@H](CCC(=O)O)[C@H]1CC[C@H]2[C@@H]3C[C@H](O)[C@@H]4C[C@H](O)CC[C@]4(C)[C@H]3CC[C@]12C [Hyodeoxycholic acid (HDCA)]
6.02%: M249R
< 0%: all other assays above

COc1ccnc(C[S+]([O-])c2nc3cc(OC(F)F)ccc3[nH]2)c1OC (stereo unspecified) [Pantoprazole]
< 0%: all assays above

CC1=C(CC(=O)O)c2cc(F)ccc2/C1=C\c1ccc([S+](C)[O-])cc1 (stereo unspecified) [Sulindac]
< 0%: all assays above

(cont.)

Cc1ccc(F)c(NC(=O)Nc2ccc(-c3cccc4[nH]nc(N)c34)cc2)c1 [Linifanib]
< 0%: all assays above

Cc1cc(Nc2nc(N[C@@H](C)c3ccc(F)cc3)c(C#N)cc2F)n[nH]1
< 0%: M238R | M249P
21.8%: M238P
30.1%: M229R
16.1%: UACC62P
16.3%: M249R
60.5%: UACC62R
7.62%: M229P

COc1c(O)cc2c(c1O)[C@@H]1O[C@H](CO)[C@@H](O)[C@H](O)[C@H]1OC2=O [Bergenin]
< 0%: all assays above

O=C(O)c1cc(O)c2c(c1)C(=O)c1cccc(O)c1C2=O [Rhein]
6.43%: UACC62P
< 0%: all other assays above

N#CC(c1ccc(Cl)cc1)c1c(Cl)cc(-n2ncc(=O)[nH]c2=O)cc1Cl (stereo unspecified) [Diclazuril]
11.3%: M249R
< 0%: all other assays above

Cc1cc(NS(=O)(=O)c2ccc(N)cc2)no1 [Sulfamethoxazole]
< 0%: all assays above

Cc1ccc2nc(NCCN)c3ncc(C)n3c2c1
0.1%: UACC62P
0.02%: M238P
< 0%: all other assays above

COc1cc2c(NC3CCN(C(C)C)CC3)nc(C3CCCCC3)nc2cc1OCCCN1CCCC1
0.27%: M229P
14.1%: UACC62P
4.99%: M229R
15.5%: M249R
< 0%: all other assays above

COC(=O)[C@@H]1CC2=CC(=O)CC[C@]2(C)[C@@]23O[C@@H]2C[C@@]2(C)[C@@H](CC[C@@]24CCC(=O)O4)[C@H]13 [Eplerenone]
< 0%: all assays above

CN[C@@H]1C[C@H]2O[C@@](C)([C@@H]1OC)n1c3ccccc3c3c4c(c5c6ccccc6n2c5c31)C(=O)N[C@H]4O [7-Hydroxystaurosporine]
81.3%: M238R
37.5%: M249R
52.9%: UACC62R
45.7%: M238P
10.4%: M249P
20.6%: M229P
69.5%: M229R
45.6%: UACC62P

OCCN1C[C@H](O)[C@@H](O)[C@H](O)[C@H]1CO [Miglitol]
6.64%: UACC62P
6.58%: M249R
< 0%: all other assays above

N[C@@H](Cc1c[nH]c2ccc(O)cc12)C(=O)O [5-Hydroxytryptophan]
< 0%: all assays above

Fc1cc(-c2cccc3ncc(-c4cnn(C5CCNCC5)c4)nc23)cc(F)c1CN1CCOCC1
< 0%: all assays above

Oc1ccc(OCc2ccccc2)cc1 [Monobenzone]
7.58%: M229R
5.32%: M249R
< 0%: all other assays above

NC(=O)c1cnc(-c2ccc(C3(N)CCC3)cc2)c(-c2ccccc2)c1
< 0%: all assays above

Cc1ccc(S(=O)(=O)Nc2cc(Cl)ccc2C(=O)Nc2nc(-c3ccccc3)cs2)cc1
< 0%: all assays above

O[C@@H](COc1cccc2ncccc12)CN1CCN(C2c3ccccc3[C@@H]3[C@H](c4ccccc42)C3(F)F)CC1 (stereo partly specified)
< 0%: all assays above

CC1=CC(=O)c2ccccc2C1=O [Menadione]
6.06%: M249P
18.6%: UACC62P
< 0%: all other assays above

CCN(CC)CCOc1ccc(Cc2ccccc2)cc1 [Tesmilifene hydrochloride]
< 0%: all assays above

CN(C)c1cc(NC(=O)CNC(C)(C)C)c(O)c2c1C[C@H]1C[C@H]3[C@H](N(C)C)C(O)=C(C(N)=O)C(=O)[C@@]3(O)C(O)=C1C2=O [Tigecycline]
< 0%: all assays above

CN(C)CC[C@H](CSc1ccccc1)Nc1ccc(S(=O)(=O)NC(=O)c2ccc(N3CCN(Cc4ccccc4-c4ccc(Cl)cc4)CC3)cc2)cc1[N+](=O)[O-]
6.08%: M249R
7.08%: UACC62P
< 0%: all other assays above

CO[C@@H](C(=O)N1Cc2[nH]nc(NC(=O)c3ccc(N4CCN(C)CC4)cc3)c2C1)c1ccccc1
59.8%: UACC62R
23.7%: M238P
< 0%: M229P
9.7%: M229R
15.6%: UACC62P
13.6%: M238R | M249P
15.4%: M249R

CN(C)C(=O)[C@H](O)[C@H](Cc1ccccc1)NC(=O)c1cc2cc(Cl)ccc2[nH]1
< 0%: all assays above

Cn1cnc([N+](=O)[O-])c1Sc1ncnc2[nH]cnc12 [Azathioprine]
29.4%: UACC62P
30.6%: M229R
13.3%: M229P
12.9%: UACC62R
0.61%: M238P
< 0%: all other assays above

CC1(C)SCCN(S(=O)(=O)c2ccc(OCC#CCO)cc2)[C@H]1C(=O)NO [Apratastat]
< 0%: all assays above

NNC(=O)c1ccncc1 [Isoniazid]
< 0%: all assays above

C=C1CC[C@@H]2[C@](C)(CO)[C@H](O)CC[C@@]2(C)[C@@H]1C/C=C1/C(=O)OC[C@H]1O [Andrographolide]
< 0%: all assays above

CC(C)OC(=O)[C@H](C)N[P@](=O)(OC[C@H]1O[C@@H](n2ccc(=O)[nH]c2=O)[C@](C)(F)[C@@H]1O)Oc1ccccc1 [Sofosbuvir]
< 0%: all assays above

COc1ccc(-c2nc3cc(C4=NNC(=O)CC4C)ccc3[nH]2)cc1 (stereo unspecified) [Pimobendan hydrochloride]
< 0%: all assays above

CCc1ccc(OCc2ccccc2C(=O)Nc2ccc3nc(C)cc(N)c3c2)cc1
5.69%: M249R
< 0%: all other assays above

O=C1[C@H](Cc2ccc(O)cc2)N2C(=O)CCN(C(=O)NCc3ccccc3)[C@H]2CN1Cc1cccc2ccccc12
< 0%: all assays above
